In this experiment the target is T1, CD24 (human (endogenous in KGN and COV434)) (UniProt P25063).
T1 sequence: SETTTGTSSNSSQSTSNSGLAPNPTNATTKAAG
Put plainly: co-IP; KGN or COV434 cell lysates (50 mM HEPES pH 7.4, 150 mM NaCl, 5 mM MgCl2, 1% Triton X-100), 500 ug protein, 2 h at 4 C with anti-CD24 antibodies conjugated to agarose beads; western blot for EGFR. For orientation: Immunoblotting shows a protein as a band on a membrane.

Results are given in words; binding and its absence hold for the method and conditions named. In cells and extracts the contact can be indirect. Some results given as binding are weak or reduced against the parent protein; the word gives no strength.

For “EGFR (from UniProt P00533 25-1210) (receptor)”, the binding result is given as “binds”.

The values are drawn from article PMC6797718.
